Screen size: about 410,000 compounds; about 18,000 (4.4%) were called active. The shares of active, inactive and inconclusive entries below differ from those in the screen. Rule as the data show it: active = activity change below about -60%; inconclusive = no clear call, values can overlap the other calls; inactive = above about -39%.
Assay: qHTS Assay for inhibitors of the human cytomegalovirus (HCMV)
Conditions: HFF cells, HCMV-luciferase reporter, 72 h; at 57.5 µM; hits give low values
Summary of the method: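 Cell-based, HFFs, 1000 cells/well, 16 h 37C; cpds in DMSO + HCMV-luc, MOI 1 PFU/cell; 72 h 37C; OneGlo luminescence after 5 min RT; norm. to buffer vs Salinomycin 10uM.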
% is scaled to controls: 0 for no effect and ±100 for the full control effect.

Structure (SMILES) | activity change, negative = inhibition
O=C(NCCN1CCCCC1)c1ccc(Cn2c(SCc3cccc(F)c3)nc3cccnc32)cc1 | inconclusive: -40.8%
COc1cccc(OCC(=O)N2CCN(C)CC2)c1 | inconclusive: -43.4%
O=C(CNc1cccc(C(F)(F)F)c1)N/N=C/c1cccc(Br)c1 | active: -73.5%
COc1ccc(N(CC(=O)NCc2ccco2)S(=O)(=O)c2ccccc2)cc1 | inactive: 13.2%
CCOC(=O)c1ccc2c(c1)nc(C1CCN(S(=O)(=O)c3cccs3)CC1)n2CC | inconclusive: -53.9%
CCOC(=O)N1CCN(C(=O)C2CCCN(S(=O)(=O)c3ccc(F)cc3)C2)CC1 (centres undefined) | inconclusive: -42.1%
COC(=O)c1cnc(N2CCN(c3ccc(F)cc3)CC2)c2ccccc12 | inactive: -28.3%
C=CCOc1ccc(CNc2ccc(NC(=O)CC(C)C)cc2)cc1OC | inactive: -23.3%
CCCSc1nnc(NC(=O)Nc2ccc(C)cc2)s1 | inconclusive: -40.8%
CCn1c(=O)c(C(=O)NCc2cccnc2)c(O)c2ccccc21 | inconclusive: -44.6%
CS(=O)(=O)N1CCCc2cc(C(=O)Nc3cccc(C(F)(F)F)c3)ccc21 | inconclusive: -59.7%
NS(=O)(=O)c1ccc(NC(=O)COC(=O)CCc2ccccc2)cc1 | inconclusive: 0%
COc1ccccc1-c1noc(CCC(=O)NC2CCCC2)n1 | inactive: 6.31%
O=C(c1ccco1)N1c2ccccc2Sc2ccccc21 | inconclusive: -45%
CC(C)(C)NC(=O)/C(=C\c1ccc(Br)cc1)NC(=O)c1cccs1 | inconclusive: -42.7%
Cc1ccccc1-c1nc(CS(=O)(=O)CC(=O)Nc2cc(Cl)cc(Cl)c2)c(C)o1 | inconclusive: -43.8%
CC1CN(S(=O)(=O)c2cccc(C(=O)Nc3cc(Cl)ccc3N3CCOCC3)c2)CC(C)O1 (centres undefined) | inconclusive: -47.5%
CC(C)c1ccc2c(c1)-c1ccccc1S(=O)(=O)N2CC(=O)N1CCCCC1 | inactive: 23.5%
CCn1cc([N+](=O)[O-])c(C(=O)Nc2nc3ccc(OC)cc3s2)n1 | active: -88.8%
Cc1cc(C(=O)Nc2c(F)cc(F)cc2Br)cs1 | inconclusive: -46.5%
Cc1ccc(OCC(=O)NC(=S)Nc2ccc(Br)cn2)cc1 | inactive: 27.4%
CC1CCCCN1C(=O)CSc1nnc(-c2ccco2)n1C (centres undefined) | inactive: -10.1%
COc1ccc(CCNC(=O)c2cnc3n(c2=O)CCS3)cc1OC | inactive: 19.6%

Pulled by structure from the list above, two records:
Structure (SMILES) | activity change, negative = inhibition
CC1CN(S(=O)(=O)c2cccc(C(=O)Nc3cc(Cl)ccc3N3CCOCC3)c2)CC(C)O1 (centres undefined) | inconclusive: -47.5%
CC1CCCCN1C(=O)CSc1nnc(-c2ccco2)n1C (centres undefined) | inactive: -10.1%

(further entries)

Structure (SMILES) | activity change, negative = inhibition
CC12CCC(=O)C=C1CCC1C2CCC2(C)C(c3csc(N)n3)CCC12 (centres undefined) | active: -93%
Nc1nonc1C(=O)NCCNCc1ccc(Cl)c(Cl)c1 | inactive: -20.9%
O=C(NN1C(=O)/C(=C/C=C/c2ccco2)SC1=S)c1ccncc1 | inconclusive: -59.2%
COc1cccc(CNC(=O)CCC2CCCN(C(=O)c3ccoc3)C2)c1 (centres undefined) | inconclusive: -48.3%
Cc1ccc(C(CNC(=O)Nc2ccccc2)N2CCN(C)CC2)cc1 (centres undefined) | inactive: -29.6%
CNC(=S)SCCOc1ccccc1C | active: -68.6%
O=C(O)c1cccc(NC(=S)N/N=C/c2ccccn2)c1 | inactive: 88.8%
CCOc1cc2c(cc1OCC)-n1cccc1C(c1ccc(C(C)C)cc1)NC2 (centres undefined) | active: -67.9%
CCc1ccc(CNC(=O)Cn2c(-c3cccs3)cc3cc(F)ccc32)cc1 | active: -65.1%
O=C(Nc1ccc(C(=O)NCCCN2CCN(c3ccc(F)cc3)CC2)cc1)C1=CSCCO1 | inactive: -24.1%
CC(=O)c1c(C(C)=O)c(C)n(Cc2ccc3c(c2)OCO3)c1C | inconclusive: -48%
COc1cc(NC(=O)c2cc(Br)cc(C)c2OC)ccc1NC(=O)C(C)C | inconclusive: -54.9%
CN(C(=O)CSc1nnc(-c2n[nH]c3ccccc23)o1)c1ccccc1 | inconclusive: -48.2%
CCn1c(O)c(N=NC(=O)CNC(=O)c2ccco2)c2ccccc21 | active: -61.8%
COc1cc(NC(=S)NC(=O)C(C)C)ccc1NC(=O)c1cc2ccccc2o1 | inconclusive: -46.6%
COc1ccc(OC)c(CCNC(=O)C2=C(C)C(=O)OC23CCC(C)CC3)c1 (centres undefined) | inconclusive: -57.9%
Cc1ccc(Oc2ccc(OCC(=O)NC(CC(C)C)C(=O)O)cc2)cc1 (centres undefined) | active: -64.9%
CCCN1CCN(CC(=O)Nc2nc3ccccc3s2)CC1 | inactive: 58.9%
CCOC(=O)C1CCCN(c2cc(=O)n(Cc3ccc(F)cc3)c(=O)[nH]2)C1 (centres undefined) | inconclusive: -42.3%
CC(CNC(=O)c1cccs1)c1ccc([N+](=O)[O-])cc1 (centres undefined) | inconclusive: -44.1%
COc1ccccc1CNC(=O)Cn1c(=O)oc2cc(S(=O)(=O)NCc3ccccc3)ccc21 | inconclusive: 0%
Cc1ccccc1CN1CCc2c(OCC(=O)N3CCCc4ccccc43)cccc2C1=O | active: -61.6%
O=C(NCc1ccccc1)c1nc2ccccc2s1 | inconclusive: -45.4%

Structure (SMILES) | activity change, negative = inhibition
C[C@@H]1CN([C@@H](C)CO)C(=O)CCCn2cc(nn2)CO[C@H]1CN(C)C(=O)Nc1ccc2c(c1)OCCO2 | inactive: 36%
COc1ccccc1N1CCC(N2CCN(CC(C)(C)C)C(CCO)C2)CC1 (centres undefined) | inactive: 33.4%
O=C(O)c1cc(-c2ccc(/C=C3/SC(=S)N(Cc4ccccc4)C3=O)o2)ccc1Cl | inactive: -28.2%
O=C(COC(=O)c1cnc(Cl)c(Cl)c1)NCc1cccs1 | inactive: -26.6%
COc1cc(CN(C(=O)c2cccc(C)c2)c2ccccn2)cc(OC)c1OC | inactive: -10.2%
COc1ccc(N2C(=O)CC(NNC(=O)c3ccc(Br)s3)C2=O)cc1 (centres undefined) | inconclusive: -41.6%
Cc1cc(C)cc(NC(=O)N2CCc3ccccc3C2)c1 | inactive: 85.1%
Cc1cc(C)c(OCCOCCN2CCCC2)c(C)c1 | inconclusive: -40.5%
Cc1ccc(-n2cc(CN3CCNC(=O)CC3)c(-c3ccc(F)cc3)n2)cc1 | inconclusive: -42%
Cc1cc(-c2nnc(SCC(=O)Nc3ccccc3C(F)(F)F)o2)c(C)n1-c1ccccc1 | inconclusive: -48.5%
OCCN1CCN(c2ncnc3c2c(-c2ccccc2)cn3-c2ccc(F)cc2)CC1 | inactive: -12.4%
Cc1ccccc1CCNC(=O)C1CCN(c2nc3ccccc3nc2C(F)(F)F)CC1 | inactive: -6.7%
O=c1cc(NC2CCCCC2)c2ccccc2o1 | inconclusive: -40.7%
CCN(CC)CCN(C(=O)/C=C/c1cccs1)c1nc2ccc(C)cc2s1 | inconclusive: -59.8%
Cc1ccsc1C(=O)OCC(=O)NCc1cccs1 | inactive: -11.8%
CCc1nc2ccccc2n1CCCCOc1ccccc1C | inconclusive: -51.2%
CN(C)CC(O)COC(c1ccc(Cl)cc1)c1ccc(Cl)cc1 (centres undefined) | inconclusive: -42.7%
Cc1cccc(N2CCN(C(=O)CCCn3c(=O)c4cccn4c4cccnc43)CC2)c1C | inactive: -11.5%
Cc1ccc(C)c(CN2CCCN(Cc3cc(C)ccc3C)S2(=O)=O)c1 | inconclusive: -51.6%
Cc1ccc(S(=O)(=O)N2CCCCC2)cc1NC(=O)Cn1c(=O)cnc2ccccc21 | inconclusive: -41.6%
CCC(=O)c1cc2c(cc1NC(=O)C(C)C)OCCO2 | inactive: -23.6%
Cc1ccc2c(c1)NC(=O)C(CC(=O)NCCCN1CCN(c3cc(Cl)ccc3C)CC1)O2 (centres undefined) | inconclusive: -46.3%
O=C1C(Nc2ccccc2)=C(N2CCCCC2)C(=O)c2ccccc21 | active: -68.8%

By substructure: those above containing fluorine
Structure (SMILES) | activity change, negative = inhibition
O=C(NCCN1CCCCC1)c1ccc(Cn2c(SCc3cccc(F)c3)nc3cccnc32)cc1 | inconclusive: -40.8%
O=C(CNc1cccc(C(F)(F)F)c1)N/N=C/c1cccc(Br)c1 | active: -73.5%
CCOC(=O)N1CCN(C(=O)C2CCCN(S(=O)(=O)c3ccc(F)cc3)C2)CC1 (centres undefined) | inconclusive: -42.1%
COC(=O)c1cnc(N2CCN(c3ccc(F)cc3)CC2)c2ccccc12 | inactive: -28.3%
CS(=O)(=O)N1CCCc2cc(C(=O)Nc3cccc(C(F)(F)F)c3)ccc21 | inconclusive: -59.7%
Cc1cc(C(=O)Nc2c(F)cc(F)cc2Br)cs1 | inconclusive: -46.5%
CCc1ccc(CNC(=O)Cn2c(-c3cccs3)cc3cc(F)ccc32)cc1 | active: -65.1%
O=C(Nc1ccc(C(=O)NCCCN2CCN(c3ccc(F)cc3)CC2)cc1)C1=CSCCO1 | inactive: -24.1%
CCOC(=O)C1CCCN(c2cc(=O)n(Cc3ccc(F)cc3)c(=O)[nH]2)C1 (centres undefined) | inconclusive: -42.3%
Cc1ccc(-n2cc(CN3CCNC(=O)CC3)c(-c3ccc(F)cc3)n2)cc1 | inconclusive: -42%
Cc1cc(-c2nnc(SCC(=O)Nc3ccccc3C(F)(F)F)o2)c(C)n1-c1ccccc1 | inconclusive: -48.5%
OCCN1CCN(c2ncnc3c2c(-c2ccccc2)cn3-c2ccc(F)cc2)CC1 | inactive: -12.4%
Cc1ccccc1CCNC(=O)C1CCN(c2nc3ccccc3nc2C(F)(F)F)CC1 | inactive: -6.7%

(cont.)

Structure (SMILES) | activity change, negative = inhibition
Cc1cc(C)cc(NC(=O)CSc2nncn3c2cc2occc23)c1 | inconclusive: -44.2%
Cc1onc(-c2ccccc2)c1C(=O)Nc1nc(-c2ccccc2)cs1 | inconclusive: -55.5%
Cc1ccc(CNC(=O)COC(=O)c2ccc(S(=O)(=O)N(C)C)cc2)cc1 | inactive: -31.9%
Cc1cc(Cl)c(S(=O)(=O)NCc2cccnc2)cc1OCC(N)=O | inconclusive: -53.6%
CCn1c2c(c(=O)n3ncc(C(=O)Nc4cccc(Cl)c4C)c13)CN(Cc1ccc(OC)cc1)CC2 | inconclusive: -52.5%
CCOc1ccc(Nc2ccc(N)c(S(=O)(=O)O)c2)cc1 | inconclusive: -52.8%
CCc1cc(CC)c(/C=N/NC(N)=O)c(CC)c1/C=N/NC(N)=O | inconclusive: -55.5%
Cc1cccn2c(CNCC3OCCc4ccccc43)c(C(=O)N3CCCCC3)nc12 (centres undefined) | inconclusive: -51%
CN(C)C(=O)CSc1nc(-c2ccccc2)c(-c2ccccc2)o1 | inconclusive: -54.2%
CCCOc1cccc(C(=O)Nc2ccc(-c3nc4ccccc4s3)c(Cl)c2)c1 | inconclusive: -51.9%
CCCCOC(=O)Nc1nc(C)c(C(=O)OCC)s1 | inconclusive: -52.2%
COC(=O)c1ccc2nc(Nc3nc4ccc(F)cc4s3)sc2c1 | active: -85.2%
COc1ccc(C2c3[nH]c4ccccc4c3CCN2Cc2cccn2-c2ncccn2)cc1C (centres undefined) | active: -98.7%
COC(=O)Cn1c(CN2CCN(c3ccc(OC)cc3)CC2)nc2c1c(=O)[nH]c(=O)n2C | inconclusive: -44%
O=[N+]([O-])c1cccc(NNS(=O)(=O)c2ccccc2F)c1 | inactive: -7.64%
C[C@@H]1C=CC(=O)O[C@@H]1c1ccc(Cl)cc1 | active: -91.5%
COc1ccc(C=C(c2nc3ccccc3s2)c2nc3ccccc3s2)cc1O | active: -83.5%
O=C(CNC(=S)N(Cc1ccccc1F)C1CCCCC1)NCC1CCCO1 (centres undefined) | active: -61.1%
CN(C)CCNC(=O)c1cccc(-c2cnc3c(NC=O)cc(-c4cccc(F)c4)cn23)c1 | active: -87.4%
CCOC(=O)C1CCCN(C(=O)c2ccccc2NS(=O)(=O)c2ccc(F)cc2)C1 (centres undefined) | inactive: 14.9%
